# Data reported in patent US10047050B2, “3,4-di-substituted pyridine compound, methods of using and compositions comprising the same” (ARDEA BIOSCIENCES, INC., priority 2011, dated 2018).
# Values joined by “and” are separate entries in the source; they are usually repeats but may differ in a detail not shown here. Equal values may be shown once. Further values from the same series stand in other lists.
# Tested on: serum uric acid
# Experiment: Single-dose Phase I clinical trial, serum uric acid (sUA) 0-72 hours post-dose
# Format: in vivo, human
# Conditions: individual subjects 3-8
# Procedure: A Phase 1, Randomized, Double-Blind, Placebo-Controlled Study to Evaluate Safety, Tolerability, Pharmacokinetics and Preliminary Food Effect of Single Doses of a URAT1 Inhibitor, in Healthy Adult Male Volunteers.
# To assess safety, tolerability, pharmacokinetics and uricosuric effects after oral administration as single doses of a tablet formulation and the effect of food on bioavailability.
# Subjects receive a single, oral dose of active or placebo, at the following doses:
# Group 4: 20 mg (fasted) [sentinel dosing];
# 48 subjects in 6 dose groups, 8 subjects/group, are randomized 3:1 to receive active (6/group) or placebo (2/group). All study procedures are the same regardless of whether subject receives active or placebo. The total duration of subject participation, including screening period, is ˜2-4 weeks, and the total volume of blood collected from each subject during the entire study <500 mL, (less than typically collected during a volunteer blood donation).
# 5 mg and 20 mg, active and placebo, tablets packaged in 35 count HDPE bottles, stored at controlled room temperature (15-30° C.). Placebo tablets are designed to match the active tablets—identical size, form, taste, and color, and containing the same excipients. 2 mg was dosed as an oral solution.
# Subjects dosed on the morning of Day 1 with ˜240 mL of room temp water.
# Fasted: subjects are dosed after overnight fast >10 hours and remain fasted until >4 hours post-dose.
# Fed: subjects fast overnight for >10 hours, then are dosed 30 mins after completing standard moderate fat breakfast (no high fructose corn syrup).
# Serum samples are collected at:
# PD samples are frozen (−20° C.) and stored; all samples from a given subject assayed in a single analytical run.
# [1] = Group 3, 5 mg single oral dose, fed, 12 h post-dose
# [2] = Group 3, 5 mg single oral dose, fed, 24 h post-dose
# [3] = Group 3, 5 mg single oral dose, fed, 30 h post-dose
# [4] = Group 3, 5 mg single oral dose, fed, 36 h post-dose
# [5] = Group 4, 20 mg single oral dose, fasted, 0 h (baseline)
# [6] = Group 4, 20 mg single oral dose, fasted, 6 h post-dose
# [7] = Group 4, 20 mg single oral dose, fasted, 12 h post-dose
# [8] = Group 4, 20 mg single oral dose, fasted, 24 h post-dose
# [9] = Group 4, 20 mg single oral dose, fasted, 30 h post-dose
smiles,measurement,setting,value
CC(C)(Sc1ccncc1-c1ccc(C#N)c2ccccc12)C(=O)O [2-((3-(4-cyanonaphthalen-1-yl)pyridin-4-yl)thio)-2-methylpropanoic acid],Absolute sUA concentration,"Group 1, 2 mg single oral dose, fasted, 0 h (baseline)",7.4 mg/dL and 7.3 mg/dL and 6.6 mg/dL and 6.3 mg/dL and 6.2 mg/dL and 5.1 mg/dL
same,Absolute sUA concentration,"Group 1, 2 mg single oral dose, fasted, 6 h post-dose",6.6 mg/dL (2×) and 6.0 mg/dL and 5.9 mg/dL and 5.1 mg/dL and 4.7 mg/dL
same,Absolute sUA concentration,"Group 1, 2 mg single oral dose, fasted, 12 h post-dose",6.4 mg/dL and 6.3 mg/dL and 5.6 mg/dL and 5.5 mg/dL and 4.9 mg/dL and 4.2 mg/dL
same,Absolute sUA concentration,"Group 1, 2 mg single oral dose, fasted, 24 h post-dose",6.8 mg/dL and 6.4 mg/dL and 5.9 mg/dL and 6.2 mg/dL and 5.7 mg/dL and 4.7 mg/dL
same,Absolute sUA concentration,"Group 1, 2 mg single oral dose, fasted, 30 h post-dose",6.5 mg/dL and 6.3 mg/dL and 5.6 mg/dL and 5.7 mg/dL and 5.3 mg/dL and 4.3 mg/dL
same,Absolute sUA concentration,"Group 1, 2 mg single oral dose, fasted, 36 h post-dose",6.3 mg/dL and 6.1 mg/dL and 5.2 mg/dL and 5.3 mg/dL and 4.8 mg/dL and 4.0 mg/dL
same,Absolute sUA concentration,"Group 1, 2 mg single oral dose, fasted, 48 h post-dose",6.8 mg/dL and 6.4 mg/dL and 5.4 mg/dL and 5.8 mg/dL and 5.1 mg/dL and 4.3 mg/dL
same,Absolute sUA concentration,"Group 1, 2 mg single oral dose, fasted, 54 h post-dose",6.5 mg/dL and 5.9 mg/dL and 5.1 mg/dL and 5.2 mg/dL and 4.8 mg/dL and 4.0 mg/dL
same,Absolute sUA concentration,"Group 1, 2 mg single oral dose, fasted, 60 h post-dose",6.6 mg/dL and 5.9 mg/dL and 5.0 mg/dL and 4.9 mg/dL and 4.6 mg/dL and 3.8 mg/dL
same,Absolute sUA concentration,"Group 1, 2 mg single oral dose, fasted, 72 h post-dose",6.5 mg/dL and 6.1 mg/dL and 5.3 mg/dL and 5.8 mg/dL and 5.0 mg/dL and 4.2 mg/dL
same,Absolute sUA concentration,"Group 2, 5 mg single oral dose, fasted, 0 h (baseline)",7.4 mg/dL and 7.2 mg/dL and 6.3 mg/dL and 6.1 mg/dL (2×) and 5.9 mg/dL
same,Absolute sUA concentration,"Group 2, 5 mg single oral dose, fasted, 6 h post-dose",5.6 mg/dL and 6.2 mg/dL and 5.4 mg/dL and 5.3 mg/dL and 4.4 mg/dL and 4.6 mg/dL
same,Absolute sUA concentration,"Group 2, 5 mg single oral dose, fasted, 12 h post-dose",4.7 mg/dL and 6.0 mg/dL and 5.1 mg/dL and 5.3 mg/dL and 3.8 mg/dL and 4.0 mg/dL
same,Absolute sUA concentration,"Group 2, 5 mg single oral dose, fasted, 24 h post-dose",5.5 mg/dL and 6.4 mg/dL and 5.6 mg/dL and 6.1 mg/dL and 4.5 mg/dL and 4.9 mg/dL
same,Absolute sUA concentration,"Group 2, 5 mg single oral dose, fasted, 30 h post-dose",5.2 mg/dL (2×) and 6.0 mg/dL and 5.6 mg/dL and 3.9 mg/dL and 4.2 mg/dL
same,Absolute sUA concentration,"Group 2, 5 mg single oral dose, fasted, 36 h post-dose",5.0 mg/dL and 5.5 mg/dL and 5.4 mg/dL and 5.2 mg/dL and 3.6 mg/dL and 4.0 mg/dL
same,Absolute sUA concentration,"Group 2, 5 mg single oral dose, fasted, 48 h post-dose",5.4 mg/dL (2×) and 6.4 mg/dL and 5.7 mg/dL and 4.2 mg/dL and 4.7 mg/dL
same,Absolute sUA concentration,"Group 2, 5 mg single oral dose, fasted, 54 h post-dose",5.1 mg/dL (2×) and 5.9 mg/dL and 5.3 mg/dL and 4.1 mg/dL and 4.2 mg/dL
same,Absolute sUA concentration,"Group 2, 5 mg single oral dose, fasted, 60 h post-dose",5.3 mg/dL and 5.6 mg/dL and 5.0 mg/dL and 4.8 mg/dL and 4.1 mg/dL and 4.2 mg/dL
same,Absolute sUA concentration,"Group 2, 5 mg single oral dose, fasted, 72 h post-dose",5.8 mg/dL and 6.1 mg/dL and 5.5 mg/dL and 5.3 mg/dL and 4.5 mg/dL (2×)
same,Absolute sUA concentration,"Group 3, 5 mg single oral dose, fed, 0 h (baseline)",6.9 mg/dL and 6.6 mg/dL and 6.5 mg/dL and 6.0 mg/dL and 5.7 mg/dL and 4.0 mg/dL
same,Absolute sUA concentration,"Group 3, 5 mg single oral dose, fed, 6 h post-dose",4.4 mg/dL (2×) and 4.5 mg/dL (2×) and 2.8 mg/dL
same,% sUA reduction (from baseline),[1],−37.5%
same,Absolute sUA concentration,[1],4.1 mg/dL (2×) and 4.6 mg/dL and 4.5 mg/dL and 4.4 mg/dL and 2.5 mg/dL
same,% sUA reduction (from baseline),[2],−27.5% and −22.7% and −20.0% and −8.3% and −7.0% and −17.5%
same,Absolute sUA concentration,[2],5.0 mg/dL and 5.1 mg/dL and 5.2 mg/dL and 5.5 mg/dL and 5.3 mg/dL and 3.3 mg/dL
same,% sUA reduction (from baseline),[3],−33.3% and −30.3% and −27.7% and −15.0% and −17.5% and −30.0%
same,Absolute sUA concentration,[3],4.6 mg/dL (2×) and 4.7 mg/dL (2×) and 5.1 mg/dL and 2.8 mg/dL
same,% sUA reduction (from baseline),[4],−37.7% and −33.3% and −29.2% and −18.3% and −21.1% and −35.0%
same,Absolute sUA concentration,[4],4.3 mg/dL and 4.4 mg/dL and 4.6 mg/dL and 4.9 mg/dL and 4.5 mg/dL and 2.6 mg/dL
same,Absolute sUA concentration,"Group 3, 5 mg single oral dose, fed, 48 h post-dose",4.7 mg/dL and 4.6 mg/dL (2×) and 5.0 mg/dL and 4.9 mg/dL and 2.9 mg/dL
same,Absolute sUA concentration,"Group 3, 5 mg single oral dose, fed, 54 h post-dose",4.3 mg/dL and 3.5 mg/dL and 4.7 mg/dL and 3.7 mg/dL and 4.5 mg/dL and 2.7 mg/dL
same,Absolute sUA concentration,"Group 3, 5 mg single oral dose, fed, 60 h post-dose",5.0 mg/dL and 4.7 mg/dL and 4.5 mg/dL and 4.8 mg/dL and 4.3 mg/dL and 2.6 mg/dL
same,Absolute sUA concentration,"Group 3, 5 mg single oral dose, fed, 72 h post-dose",5.9 mg/dL and 5.4 mg/dL and 5.2 mg/dL and 5.3 mg/dL and 4.8 mg/dL and 3.0 mg/dL
same,% sUA reduction (from baseline),[5],0%
same,Absolute sUA concentration,[5],7.8 mg/dL and 7.6 mg/dL and 7.4 mg/dL and 6.2 mg/dL and 5.9 mg/dL and 5.6 mg/dL
same,% sUA reduction (from baseline),[6],−33.3% and −38.2% and −37.8% and −35.5% and −47.5% and −30.4%
same,Absolute sUA concentration,[6],5.2 mg/dL and 4.7 mg/dL and 4.6 mg/dL and 4.0 mg/dL and 3.1 mg/dL and 3.9 mg/dL
same,% sUA reduction (from baseline),[7],−42.3% and −43.4% and −16.2% and −48.4% and −52.5% and −44.6%
same,Absolute sUA concentration,[7],4.5 mg/dL and 4.3 mg/dL and 6.2 mg/dL and 3.2 mg/dL and 2.8 mg/dL and 3.1 mg/dL
same,% sUA reduction (from baseline),[8],−46.2% and −43.4% and −40.5% and −43.5% and −44.1% and −41.1%
same,Absolute sUA concentration,[8],4.2 mg/dL and 4.3 mg/dL and 4.4 mg/dL and 3.5 mg/dL and 3.3 mg/dL (2×)
same,% sUA reduction (from baseline),[9],−52.6% and −44.7% and −44.6% and −43.5% and −52.5% and −46.4%
same,Absolute sUA concentration,[9],3.7 mg/dL and 4.2 mg/dL and 4.1 mg/dL and 3.5 mg/dL and 2.8 mg/dL and 3.0 mg/dL
